No constants are given. Whether binding was seen depends on the method and setting. Some entries that bind do so weakly or less than the wild type.
Target: human CD137 extracellular domain (Peprotech, cat. 310-15-1MG) (human) (UniProt Q07011)
Assay: flow cytometry; binder captured on protein G beads, R-PE labeled CD137 ECD

The chains behind the UniProt entries cited, without tags or fusion partners. Where a name states a change or a piece, a line headed by the entry shows the natural chain unless it says otherwise. Residues count along the entry.
UniProt Q07011: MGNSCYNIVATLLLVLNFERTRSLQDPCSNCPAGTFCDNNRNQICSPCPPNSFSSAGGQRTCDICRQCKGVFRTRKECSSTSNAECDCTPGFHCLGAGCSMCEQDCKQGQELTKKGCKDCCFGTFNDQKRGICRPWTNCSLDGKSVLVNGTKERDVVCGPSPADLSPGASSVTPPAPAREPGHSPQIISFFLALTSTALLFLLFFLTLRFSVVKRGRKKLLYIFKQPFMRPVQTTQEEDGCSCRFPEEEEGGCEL
UniProt P41273, residues 50-254: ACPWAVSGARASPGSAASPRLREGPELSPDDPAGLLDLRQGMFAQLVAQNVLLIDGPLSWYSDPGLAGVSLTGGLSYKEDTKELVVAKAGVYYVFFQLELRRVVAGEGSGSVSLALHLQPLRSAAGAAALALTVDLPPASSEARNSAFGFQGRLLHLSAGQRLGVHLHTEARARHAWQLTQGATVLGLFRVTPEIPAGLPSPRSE

binding: binds
Substance: CD137L ECD fused to the Fc part of a human IgG1 (from UniProt P41273 50-254) (Fc fusion)

Reference: EP3470428A1
